Literature values as cited in patent publication US7964627B2, “Amino arylsulfonamide compounds and their use as 5-HT6 ligands” (Suven Life Sciences Limited, priority 2007, dated 2011).
At least one structure is not confirmed: it was looked up by name or label, or the drawing left a doubt.

System: 5-HT6 receptor
Conditions: literature; cited from earlier work

In the case of `CN1CCN(C2=Nc3cc(Cl)ccc3Nc3ccccc32)CC1` [clozapine], the “Affinity for the 5-HT6 receptor” value is given as “high affinity”.
